According to patent publication US20030088884A1:
Results are given in words; binding and its absence hold for the method and conditions named. Some entries that bind do so weakly or less than the wild type. Sequences can lack the tags named with a protein.

Biological target: T1, porcine relaxin (porcine) (UniProt P01348)
T1 sequence (looked up) 1: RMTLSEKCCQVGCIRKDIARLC
T1 sequence (looked up) 2: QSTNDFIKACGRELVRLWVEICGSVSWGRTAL
Assay: cross-linking with disuccinimidyl suberate in PBS, SDS-PAGE, blot with anti-relaxin antibody

- binding: binds
B1: 7BP, soluble ectodomain of LGR7 tagged with 6-His and M1 epitopes (receptor, UniProt Q9HBX9 23-402, looked up, not shown: small tags and cut ends)
chain: QDVKCSLGYFPCGNITKCLPQLLHCNGVDDCGNQADEDNCGDNNGWSLQFDKYFASYYKMTSQYPFEAETPECLVGSVPVQCLCQGLELDCDETNLRAVPSVSSNVTAMSLQWNLIRKLPPDCFKNYHDLQKLYLQNNKITSISIYAFRGLNSLTKLYLSHNRITFLKPGVFEDLHRLEWLIIEDNHLSRISPPTFYGLNSLILLVLMNNVLTRLPDKPLCQHMPRLHWLDLEGNHIHNLRNLTFISCSNLTVLVMRKNKINHLNENTFAPLQKLDELDLGSNKIENLPPLIFKDLKELSQLNLSYNPIQKIQANQFDYLVKLKSLSLEGIEISNIQQRMFRPLMNLSHIYFKKFQYCGYAPHVRSCKPNTDGISSLENL
